In the supplement of paper PMC10849652:
This is one part of the list.

The chains behind the UniProt entries cited, without tags or fusion partners. Where a name states a change or a piece, a line headed by the entry shows the natural chain unless it says otherwise.
UniProt Q53EU6: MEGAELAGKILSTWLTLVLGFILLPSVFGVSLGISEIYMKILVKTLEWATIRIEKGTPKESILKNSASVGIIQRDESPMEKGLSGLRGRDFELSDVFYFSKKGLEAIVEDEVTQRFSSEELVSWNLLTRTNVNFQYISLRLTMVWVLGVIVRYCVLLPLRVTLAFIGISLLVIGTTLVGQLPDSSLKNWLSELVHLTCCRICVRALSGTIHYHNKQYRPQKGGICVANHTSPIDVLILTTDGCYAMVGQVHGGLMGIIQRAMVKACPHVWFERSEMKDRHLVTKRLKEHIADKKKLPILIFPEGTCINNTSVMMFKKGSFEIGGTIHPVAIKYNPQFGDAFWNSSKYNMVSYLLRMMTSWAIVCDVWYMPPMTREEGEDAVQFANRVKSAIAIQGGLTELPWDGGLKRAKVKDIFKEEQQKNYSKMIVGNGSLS
UniProt P32189: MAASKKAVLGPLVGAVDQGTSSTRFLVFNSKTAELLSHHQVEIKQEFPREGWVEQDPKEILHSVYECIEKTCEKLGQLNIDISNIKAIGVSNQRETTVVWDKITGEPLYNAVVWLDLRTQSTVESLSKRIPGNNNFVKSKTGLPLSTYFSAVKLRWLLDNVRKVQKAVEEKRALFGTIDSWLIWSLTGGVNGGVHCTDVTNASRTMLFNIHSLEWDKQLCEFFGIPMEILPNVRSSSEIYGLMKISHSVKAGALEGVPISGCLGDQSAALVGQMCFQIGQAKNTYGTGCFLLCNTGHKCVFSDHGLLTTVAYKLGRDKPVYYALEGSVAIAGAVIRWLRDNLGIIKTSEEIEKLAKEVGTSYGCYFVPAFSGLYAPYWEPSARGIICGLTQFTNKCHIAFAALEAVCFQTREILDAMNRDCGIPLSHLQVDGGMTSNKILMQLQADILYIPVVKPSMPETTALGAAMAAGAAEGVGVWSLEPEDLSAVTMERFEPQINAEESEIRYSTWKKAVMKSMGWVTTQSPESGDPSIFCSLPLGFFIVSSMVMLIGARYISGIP
UniProt Q49A26: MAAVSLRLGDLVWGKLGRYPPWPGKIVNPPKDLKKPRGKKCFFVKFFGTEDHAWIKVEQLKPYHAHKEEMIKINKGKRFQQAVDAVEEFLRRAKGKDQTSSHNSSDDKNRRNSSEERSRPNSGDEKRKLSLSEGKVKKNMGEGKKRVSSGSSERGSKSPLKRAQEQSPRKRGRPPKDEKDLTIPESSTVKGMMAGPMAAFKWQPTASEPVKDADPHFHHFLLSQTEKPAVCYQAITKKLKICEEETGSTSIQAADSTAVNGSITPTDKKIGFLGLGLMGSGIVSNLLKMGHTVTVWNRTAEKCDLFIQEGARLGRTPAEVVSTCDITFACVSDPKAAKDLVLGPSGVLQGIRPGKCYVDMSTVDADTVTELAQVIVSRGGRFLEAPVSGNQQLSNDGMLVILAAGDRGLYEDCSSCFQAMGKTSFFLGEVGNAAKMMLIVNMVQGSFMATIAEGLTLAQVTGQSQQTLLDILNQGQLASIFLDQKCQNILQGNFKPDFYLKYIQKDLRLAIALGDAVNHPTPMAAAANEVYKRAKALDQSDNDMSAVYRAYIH
UniProt Q8N954: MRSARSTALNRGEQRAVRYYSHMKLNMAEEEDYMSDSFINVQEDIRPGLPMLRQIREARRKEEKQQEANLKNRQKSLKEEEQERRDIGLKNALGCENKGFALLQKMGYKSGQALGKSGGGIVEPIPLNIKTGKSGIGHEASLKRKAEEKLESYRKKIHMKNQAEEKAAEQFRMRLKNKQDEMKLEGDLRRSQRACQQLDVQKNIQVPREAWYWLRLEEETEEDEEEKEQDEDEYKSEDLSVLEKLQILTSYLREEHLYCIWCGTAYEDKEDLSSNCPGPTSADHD
UniProt Q92917: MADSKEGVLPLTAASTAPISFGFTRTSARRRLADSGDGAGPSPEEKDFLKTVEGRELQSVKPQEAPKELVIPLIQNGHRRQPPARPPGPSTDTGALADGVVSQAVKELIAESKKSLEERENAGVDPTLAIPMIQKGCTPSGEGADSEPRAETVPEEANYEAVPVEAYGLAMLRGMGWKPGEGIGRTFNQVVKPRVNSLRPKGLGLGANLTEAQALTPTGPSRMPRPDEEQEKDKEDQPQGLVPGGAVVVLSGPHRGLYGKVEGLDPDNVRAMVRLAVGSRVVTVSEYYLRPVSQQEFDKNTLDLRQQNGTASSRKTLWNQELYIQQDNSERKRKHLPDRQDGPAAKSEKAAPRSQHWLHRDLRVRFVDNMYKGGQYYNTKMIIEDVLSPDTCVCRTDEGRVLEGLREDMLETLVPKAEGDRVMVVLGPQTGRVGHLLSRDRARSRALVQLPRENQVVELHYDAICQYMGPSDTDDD
UniProt Q14691: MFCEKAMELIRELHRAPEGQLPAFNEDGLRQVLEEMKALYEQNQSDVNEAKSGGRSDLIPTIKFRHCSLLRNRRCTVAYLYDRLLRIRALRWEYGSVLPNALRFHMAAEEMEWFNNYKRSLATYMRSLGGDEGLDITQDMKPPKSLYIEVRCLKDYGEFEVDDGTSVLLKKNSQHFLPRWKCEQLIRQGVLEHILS
UniProt P62879, whole entry, looked up: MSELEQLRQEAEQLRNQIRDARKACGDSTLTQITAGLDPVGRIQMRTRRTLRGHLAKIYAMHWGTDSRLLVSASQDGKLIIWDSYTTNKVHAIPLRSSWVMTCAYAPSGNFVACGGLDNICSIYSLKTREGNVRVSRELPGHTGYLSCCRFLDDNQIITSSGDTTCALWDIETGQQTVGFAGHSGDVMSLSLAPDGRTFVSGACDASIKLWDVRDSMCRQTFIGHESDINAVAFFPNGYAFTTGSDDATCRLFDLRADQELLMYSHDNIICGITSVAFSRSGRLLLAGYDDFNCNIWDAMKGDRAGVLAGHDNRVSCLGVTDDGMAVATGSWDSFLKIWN
UniProt P04899, whole entry, looked up: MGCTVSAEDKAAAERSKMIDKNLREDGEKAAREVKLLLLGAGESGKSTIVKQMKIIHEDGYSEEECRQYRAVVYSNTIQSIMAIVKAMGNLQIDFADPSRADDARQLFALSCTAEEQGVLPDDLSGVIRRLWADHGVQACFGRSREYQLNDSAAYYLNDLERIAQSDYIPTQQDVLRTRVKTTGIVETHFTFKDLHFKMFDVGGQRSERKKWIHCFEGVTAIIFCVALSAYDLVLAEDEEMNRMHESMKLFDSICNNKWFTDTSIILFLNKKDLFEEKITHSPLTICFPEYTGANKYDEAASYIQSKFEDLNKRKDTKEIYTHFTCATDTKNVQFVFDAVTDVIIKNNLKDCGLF
UniProt Q8IXQ4: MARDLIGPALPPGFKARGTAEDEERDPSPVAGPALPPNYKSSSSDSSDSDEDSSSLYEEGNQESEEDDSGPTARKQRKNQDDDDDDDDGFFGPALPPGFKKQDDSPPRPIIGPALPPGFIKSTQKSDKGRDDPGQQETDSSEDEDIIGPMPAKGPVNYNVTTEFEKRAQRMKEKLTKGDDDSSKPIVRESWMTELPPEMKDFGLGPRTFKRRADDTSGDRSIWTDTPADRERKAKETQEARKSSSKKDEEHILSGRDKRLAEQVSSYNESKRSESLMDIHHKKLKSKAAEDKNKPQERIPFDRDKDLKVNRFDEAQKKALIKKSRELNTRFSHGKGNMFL
UniProt Q9Y5P6: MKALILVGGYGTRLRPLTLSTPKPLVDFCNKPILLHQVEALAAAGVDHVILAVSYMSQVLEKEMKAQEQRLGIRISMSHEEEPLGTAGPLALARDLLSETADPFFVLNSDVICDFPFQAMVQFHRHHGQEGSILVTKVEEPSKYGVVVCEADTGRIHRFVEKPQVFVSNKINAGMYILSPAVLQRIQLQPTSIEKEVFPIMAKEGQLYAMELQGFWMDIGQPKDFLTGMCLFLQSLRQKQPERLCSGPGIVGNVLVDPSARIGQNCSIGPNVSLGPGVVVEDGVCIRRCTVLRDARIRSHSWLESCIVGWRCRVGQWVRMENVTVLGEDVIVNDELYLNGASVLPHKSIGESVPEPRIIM
UniProt Q9HAV0, whole entry, looked up: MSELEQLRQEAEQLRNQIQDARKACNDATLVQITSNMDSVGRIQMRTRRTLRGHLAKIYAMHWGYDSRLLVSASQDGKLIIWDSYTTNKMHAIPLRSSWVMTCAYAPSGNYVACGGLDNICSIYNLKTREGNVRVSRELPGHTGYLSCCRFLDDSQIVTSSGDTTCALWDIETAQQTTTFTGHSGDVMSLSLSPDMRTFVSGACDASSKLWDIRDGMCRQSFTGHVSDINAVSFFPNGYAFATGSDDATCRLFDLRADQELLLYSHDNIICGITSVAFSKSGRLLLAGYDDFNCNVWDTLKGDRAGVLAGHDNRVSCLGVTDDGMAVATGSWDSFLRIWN
UniProt Q86UL3: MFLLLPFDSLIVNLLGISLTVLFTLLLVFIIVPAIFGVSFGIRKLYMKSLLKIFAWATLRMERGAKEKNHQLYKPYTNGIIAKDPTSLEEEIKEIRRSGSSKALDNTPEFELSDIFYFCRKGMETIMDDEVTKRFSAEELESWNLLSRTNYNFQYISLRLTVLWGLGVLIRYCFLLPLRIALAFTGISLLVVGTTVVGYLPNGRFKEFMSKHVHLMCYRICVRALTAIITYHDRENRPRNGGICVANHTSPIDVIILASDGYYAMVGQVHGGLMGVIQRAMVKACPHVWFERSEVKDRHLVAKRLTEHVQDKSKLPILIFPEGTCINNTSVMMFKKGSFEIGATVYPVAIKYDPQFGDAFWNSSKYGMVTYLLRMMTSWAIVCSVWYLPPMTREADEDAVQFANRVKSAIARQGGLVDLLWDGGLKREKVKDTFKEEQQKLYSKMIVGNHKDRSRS
UniProt O14908: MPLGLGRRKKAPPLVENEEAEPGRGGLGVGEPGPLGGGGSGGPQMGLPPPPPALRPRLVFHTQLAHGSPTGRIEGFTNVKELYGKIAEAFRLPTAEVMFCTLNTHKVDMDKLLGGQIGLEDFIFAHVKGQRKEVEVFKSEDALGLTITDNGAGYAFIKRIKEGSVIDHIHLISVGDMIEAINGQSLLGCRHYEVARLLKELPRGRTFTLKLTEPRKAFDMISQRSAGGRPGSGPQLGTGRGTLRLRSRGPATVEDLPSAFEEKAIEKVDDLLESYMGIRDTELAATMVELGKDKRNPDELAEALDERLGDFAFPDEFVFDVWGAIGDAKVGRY
UniProt O75496: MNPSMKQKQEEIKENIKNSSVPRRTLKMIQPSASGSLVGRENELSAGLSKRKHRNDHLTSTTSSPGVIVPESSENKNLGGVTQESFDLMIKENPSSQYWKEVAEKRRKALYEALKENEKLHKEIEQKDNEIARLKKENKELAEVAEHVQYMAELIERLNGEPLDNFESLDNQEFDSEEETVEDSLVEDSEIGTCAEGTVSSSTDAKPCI
UniProt O60547: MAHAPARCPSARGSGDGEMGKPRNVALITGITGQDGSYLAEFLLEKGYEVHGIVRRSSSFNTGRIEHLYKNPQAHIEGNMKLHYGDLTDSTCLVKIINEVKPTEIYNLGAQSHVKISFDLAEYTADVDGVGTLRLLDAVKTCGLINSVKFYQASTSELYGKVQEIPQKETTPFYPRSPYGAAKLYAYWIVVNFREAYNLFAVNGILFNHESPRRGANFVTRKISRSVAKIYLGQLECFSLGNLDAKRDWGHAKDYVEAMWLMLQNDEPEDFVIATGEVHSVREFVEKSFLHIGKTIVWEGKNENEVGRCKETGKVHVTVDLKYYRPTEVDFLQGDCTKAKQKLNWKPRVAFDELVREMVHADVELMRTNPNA
UniProt Q13098: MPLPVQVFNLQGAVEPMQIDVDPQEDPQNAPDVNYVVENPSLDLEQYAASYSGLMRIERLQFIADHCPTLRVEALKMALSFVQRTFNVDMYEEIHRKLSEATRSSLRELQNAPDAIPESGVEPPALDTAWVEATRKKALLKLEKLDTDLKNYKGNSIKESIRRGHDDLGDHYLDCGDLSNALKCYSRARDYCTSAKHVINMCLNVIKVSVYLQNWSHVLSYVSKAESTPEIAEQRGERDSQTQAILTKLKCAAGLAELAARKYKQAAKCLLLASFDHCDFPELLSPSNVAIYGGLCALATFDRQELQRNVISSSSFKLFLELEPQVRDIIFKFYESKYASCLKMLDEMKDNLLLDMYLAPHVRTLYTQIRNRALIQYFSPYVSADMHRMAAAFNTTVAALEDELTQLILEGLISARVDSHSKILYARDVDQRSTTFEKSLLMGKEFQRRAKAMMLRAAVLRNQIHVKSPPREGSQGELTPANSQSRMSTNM
UniProt Q9BRT9, whole entry, looked up: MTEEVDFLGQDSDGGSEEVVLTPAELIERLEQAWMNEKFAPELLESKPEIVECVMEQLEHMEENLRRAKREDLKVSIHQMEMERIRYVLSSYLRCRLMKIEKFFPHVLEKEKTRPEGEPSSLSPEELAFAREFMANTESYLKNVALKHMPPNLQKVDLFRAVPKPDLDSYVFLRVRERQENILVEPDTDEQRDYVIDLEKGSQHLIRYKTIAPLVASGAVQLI
UniProt P17900: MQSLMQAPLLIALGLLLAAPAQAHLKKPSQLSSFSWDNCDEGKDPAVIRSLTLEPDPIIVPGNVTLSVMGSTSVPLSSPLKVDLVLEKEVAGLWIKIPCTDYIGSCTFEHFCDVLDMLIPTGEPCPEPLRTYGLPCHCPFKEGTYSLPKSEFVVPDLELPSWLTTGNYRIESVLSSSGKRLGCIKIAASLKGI

The targets below were run with CC[C@@H]1C(=O)N(C)c2cnc(Nc3ccc(C(=O)NC4CCN(C)CC4)cc3OC)nc2N1C1CCCC1 (assay: log2 fold change, soluble protein after heating vs DMSO (PISA); higher = thermal stabilisation; K562 cells, 10 uM, 30 min; active = over 0.2 and 3.5 SD of the protein, either way, in both replicates (recomputed)).
How it was run: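 K562 cells at 2×10^6 cells/mL were treated for 30 min with 10 μM compound, and aliquots were heated for 3 min over 48°C-58°C before pooling. Extraction used PBS with 0.5% NP-40 at 4°C, and soluble protein was the supernatant after 21,000xg for 90 min, measured by TMTpro 16plex LC-MS/MS with channel sums equalised. Thermal stability values, relative to control samples and from duplicates, are log2 fold changes.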

log2 fold change, inactive:
GPAT3 (UniProt Q53EU6) 0.015
GK (UniProt P32189) 0.047
GLYR1 (UniProt Q49A26) 0.099
GPATCH11 (UniProt Q8N954) -0.081
GPKOW (UniProt Q92917) -0.056
GNB1 (UniProt P62873) 0.068
GINS1 (UniProt Q14691) 0.005
GNB2 (UniProt P62879) 0.122
GNAI2 isoform 4 (UniProt P04899) 0.146
GPALPP1 (UniProt Q8IXQ4) 0.056
GMPPB isoform 2 (UniProt Q9Y5P6) 0.026
GNB4 (UniProt Q9HAV0) 0.138
GPHN isoform 2 (UniProt Q9NQX3) -0.022
GNL1 (UniProt P36915) -0.095
GSK3A (UniProt P49840) -0.067
GPAT4 (UniProt Q86UL3) -0.042
GIPC1 (UniProt O14908) 0.037
GNB1L (UniProt Q9BYB4) -0.042
GMNN (UniProt O75496) 0.055
GMDS (UniProt O60547) 0.045
GPS1 isoform 7 (UniProt Q13098) -0.012
GINS4 (UniProt Q9BRT9) -0.064
GM2A (UniProt P17900) 0.067

2 neighbouring entries already listed, for reference:
log2 fold change, inactive:
GMNN (UniProt O75496) 0.055
GMDS (UniProt O60547) 0.045
